Reference: publication PMC8257592
Results are given in words; binding and its absence hold for the method and conditions named. In cells and extracts the contact can be indirect. Some results given as binding are weak or reduced against the parent protein; the word gives no strength. One block for each substance: values may come before it.

By UniProt entry, the sequences of proteins in these tests, tags left out. Residues count along the entry.
UniProt Q14764: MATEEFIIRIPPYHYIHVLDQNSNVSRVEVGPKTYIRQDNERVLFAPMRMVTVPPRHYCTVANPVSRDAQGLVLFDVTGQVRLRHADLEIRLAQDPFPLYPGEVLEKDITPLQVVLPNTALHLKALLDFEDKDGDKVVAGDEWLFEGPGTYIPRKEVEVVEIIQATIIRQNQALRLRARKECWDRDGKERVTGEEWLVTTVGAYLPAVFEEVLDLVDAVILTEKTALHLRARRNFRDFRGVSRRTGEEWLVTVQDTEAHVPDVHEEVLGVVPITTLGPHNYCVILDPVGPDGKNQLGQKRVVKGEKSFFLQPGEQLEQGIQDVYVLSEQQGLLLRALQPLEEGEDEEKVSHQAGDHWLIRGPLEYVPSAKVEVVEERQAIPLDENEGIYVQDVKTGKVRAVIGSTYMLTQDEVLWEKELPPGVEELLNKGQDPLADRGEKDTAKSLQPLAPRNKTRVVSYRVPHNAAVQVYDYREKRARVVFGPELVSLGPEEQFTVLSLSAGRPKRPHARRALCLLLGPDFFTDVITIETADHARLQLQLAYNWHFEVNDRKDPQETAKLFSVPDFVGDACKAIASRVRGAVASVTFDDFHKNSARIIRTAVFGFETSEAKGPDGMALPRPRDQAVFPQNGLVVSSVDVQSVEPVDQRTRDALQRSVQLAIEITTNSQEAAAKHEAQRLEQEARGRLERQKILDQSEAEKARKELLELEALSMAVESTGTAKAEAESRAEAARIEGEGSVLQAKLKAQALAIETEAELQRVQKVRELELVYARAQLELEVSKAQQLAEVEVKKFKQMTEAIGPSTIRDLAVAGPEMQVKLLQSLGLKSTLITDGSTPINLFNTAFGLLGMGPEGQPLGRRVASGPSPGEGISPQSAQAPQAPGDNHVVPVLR
UniProt P08151: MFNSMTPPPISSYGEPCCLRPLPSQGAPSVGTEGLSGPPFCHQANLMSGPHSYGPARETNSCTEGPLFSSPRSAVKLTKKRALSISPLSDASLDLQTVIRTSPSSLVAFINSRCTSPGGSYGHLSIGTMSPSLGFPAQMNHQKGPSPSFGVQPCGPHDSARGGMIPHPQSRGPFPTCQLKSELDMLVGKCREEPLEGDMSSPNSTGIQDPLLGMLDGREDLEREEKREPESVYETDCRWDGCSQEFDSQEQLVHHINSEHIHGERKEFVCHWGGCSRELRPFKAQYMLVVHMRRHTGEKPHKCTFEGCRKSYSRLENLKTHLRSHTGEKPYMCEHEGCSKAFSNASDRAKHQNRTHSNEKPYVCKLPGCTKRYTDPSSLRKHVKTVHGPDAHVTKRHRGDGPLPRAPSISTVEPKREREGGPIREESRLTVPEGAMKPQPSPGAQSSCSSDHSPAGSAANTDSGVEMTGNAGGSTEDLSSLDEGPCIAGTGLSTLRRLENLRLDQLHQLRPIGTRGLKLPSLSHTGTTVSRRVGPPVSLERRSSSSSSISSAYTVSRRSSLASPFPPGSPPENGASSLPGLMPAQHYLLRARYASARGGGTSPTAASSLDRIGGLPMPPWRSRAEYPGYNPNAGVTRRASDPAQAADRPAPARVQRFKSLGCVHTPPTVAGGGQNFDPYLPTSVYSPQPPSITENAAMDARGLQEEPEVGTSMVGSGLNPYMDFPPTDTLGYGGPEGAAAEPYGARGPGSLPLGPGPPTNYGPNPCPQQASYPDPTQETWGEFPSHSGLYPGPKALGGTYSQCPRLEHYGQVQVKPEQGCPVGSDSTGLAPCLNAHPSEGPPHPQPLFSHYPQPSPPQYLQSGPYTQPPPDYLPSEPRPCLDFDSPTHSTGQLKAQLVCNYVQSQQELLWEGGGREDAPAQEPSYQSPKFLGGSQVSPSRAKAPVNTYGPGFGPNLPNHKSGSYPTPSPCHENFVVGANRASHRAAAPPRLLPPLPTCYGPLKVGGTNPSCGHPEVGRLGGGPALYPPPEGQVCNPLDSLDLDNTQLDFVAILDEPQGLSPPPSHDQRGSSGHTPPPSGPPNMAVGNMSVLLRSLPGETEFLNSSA
UniProt Q05639: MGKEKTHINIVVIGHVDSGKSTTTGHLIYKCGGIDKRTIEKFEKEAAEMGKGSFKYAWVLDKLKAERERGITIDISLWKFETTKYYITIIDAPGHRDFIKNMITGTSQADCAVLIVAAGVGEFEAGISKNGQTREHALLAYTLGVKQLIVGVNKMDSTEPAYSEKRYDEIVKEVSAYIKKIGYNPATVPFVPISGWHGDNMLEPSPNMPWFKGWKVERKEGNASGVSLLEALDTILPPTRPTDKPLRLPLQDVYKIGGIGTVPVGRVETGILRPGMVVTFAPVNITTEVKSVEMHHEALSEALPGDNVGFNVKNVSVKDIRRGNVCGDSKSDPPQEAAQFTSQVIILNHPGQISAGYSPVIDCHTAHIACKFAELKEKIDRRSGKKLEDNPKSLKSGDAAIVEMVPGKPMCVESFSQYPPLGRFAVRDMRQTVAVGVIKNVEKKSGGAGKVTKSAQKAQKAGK
UniProt P23443: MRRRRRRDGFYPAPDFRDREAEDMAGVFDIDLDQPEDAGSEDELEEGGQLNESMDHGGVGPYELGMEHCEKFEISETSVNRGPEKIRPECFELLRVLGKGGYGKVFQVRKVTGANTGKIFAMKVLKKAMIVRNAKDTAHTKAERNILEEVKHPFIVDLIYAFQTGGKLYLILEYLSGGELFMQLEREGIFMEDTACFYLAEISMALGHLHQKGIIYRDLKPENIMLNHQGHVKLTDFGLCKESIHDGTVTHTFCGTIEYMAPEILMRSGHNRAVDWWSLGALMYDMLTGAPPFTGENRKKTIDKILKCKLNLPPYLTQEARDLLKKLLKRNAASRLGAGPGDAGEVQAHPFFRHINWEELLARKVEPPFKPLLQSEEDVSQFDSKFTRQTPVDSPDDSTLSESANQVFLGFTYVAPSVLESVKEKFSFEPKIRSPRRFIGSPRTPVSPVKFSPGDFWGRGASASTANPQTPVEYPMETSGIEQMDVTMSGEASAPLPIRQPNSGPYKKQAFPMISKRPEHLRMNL
UniProt P10809, residues 27-573: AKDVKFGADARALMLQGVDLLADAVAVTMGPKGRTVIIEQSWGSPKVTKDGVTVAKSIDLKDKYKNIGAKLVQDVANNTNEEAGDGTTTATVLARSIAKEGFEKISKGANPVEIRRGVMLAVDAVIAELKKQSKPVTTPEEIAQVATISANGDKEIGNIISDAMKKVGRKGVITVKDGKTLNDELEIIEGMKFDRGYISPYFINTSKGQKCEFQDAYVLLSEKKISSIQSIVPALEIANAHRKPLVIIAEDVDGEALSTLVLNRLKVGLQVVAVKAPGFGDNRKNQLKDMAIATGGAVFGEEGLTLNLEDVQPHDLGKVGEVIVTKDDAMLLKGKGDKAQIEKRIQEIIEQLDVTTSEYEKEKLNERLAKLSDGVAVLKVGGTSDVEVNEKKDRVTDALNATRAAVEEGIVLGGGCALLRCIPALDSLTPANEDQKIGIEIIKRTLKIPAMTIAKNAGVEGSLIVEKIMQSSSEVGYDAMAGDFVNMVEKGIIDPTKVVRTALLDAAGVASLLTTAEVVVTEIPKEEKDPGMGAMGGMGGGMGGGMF

How the values were obtained:
[1] = target: GFP tagged human full-length MVP (human) (UniProt Q14764); test: co-IP; HEK-293T transiently transfected with Flag-GLI1 or Flag-tagged GLI1 truncations together with GFP-MVP, lysed 48 h after transfection; IP with Flag or GFP antibody, western blot
[2] = target: Flag-tagged GLI1 (HEK-293T) (human) (UniProt P08151); test: as above
[3] = target: major vault protein (endogenous) (human (endogenous in SW1353 and HCS2/8)) (UniProt Q14764); test: co-IP; endogenous proteins in whole-cell lysates of chondrosarcoma cells (SW1353, HCS2/8); primary antibody overnight at 4 °C, protein A/G PLUS-agarose, western blot; IgG control
[4] = target: GLI1 (endogenous) (human (endogenous in SW1353 and HCS2/8)) (UniProt P08151); test: as above
[5] = target: 3xFlag tagged human full-length GLI1 (stable in SW1353) (human) (UniProt P08151); test: co-IP; SW1353 cells stably over-expressing Flag-tagged GLI1, IP with Flag antibody, western blot; with knock-down of MVP or over-expression of MVP

Substance: Flag-tagged GLI1 (HEK-293T) (from UniProt P08151 1-1106)
binding [1]: binds

Substance: GFP tagged human full-length MVP (from UniProt Q14764 1-893)
binding [2]: binds

Substance: eEF1A2 (from UniProt Q05639 1-463)
binding [4]: binds

Substance: p70S6K1 (endogenous, HEK-293T) (from UniProt P23443 1-525)
binding [1]: binds
binding [2]: binds

Substance: p70S6K1 (endogenous, SW1353) (from UniProt P23443 1-525)
binding [3]: binds

Continued, values first:

binding [3]: binds
Substance: GLI1 (endogenous) (from UniProt P08151 1-1106)

binding [4]: binds
Substance: HSP60 (from UniProt P10809 27-573)

binding [5]: binds
binding [4]: binds
Substance: major vault protein (endogenous) (from UniProt Q14764 1-893)
